PubChem BioAssay AID743121, NCATS – 2013

Test: 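Knock-downs that sensitise breast cancer cells to camptothecin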 (primary screen)
System: MDA-MB-231 cells, a human breast cancer line
Reagents: single siRNA against human genes, 20 nM siRNA (0.8 pmol per well)
Time to read-out: 120 h (drug added 48 h after transfection, read 72 h later)
Treatment: camptothecin 20 nM (about EC30) for 72 h; vehicle 0.1% DMSO in parallel plates
Detection: 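Cell viability by ATP luminescence (CellTiter-Glo) as % of non-targeting siRNA wells, and the log2 ratio of viability without drug over viability with camptothecin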
Direction: log2 vehicle/camptothecin viability: higher = stronger sensitisation to camptothecin; viability with camptothecin: higher = more viable cells
Active means: 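Active genes have an RSA gene-level p-value below 0.001, computed from the ratios of their separate siRNAs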
The whole screen tested about 26,000 reagents; shown is a random part of them. Over the whole deposit, 167 (0.63%) were called active. 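Calls are per gene from RSA p-values that are not deposited; an individual active-marked siRNA can sensitise only weakly.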 Unmarked entries are inactive. The numbers tell different reagents against one gene apart. Further read-outs or replicates are left out here.

{"target":"KIF5A (kinesin family member 5A)","reagent no.":1,"log2 vehicle/camptothecin viability":-0.123,"viability with camptothecin (% of control)":107}
{"target":"KIF5A (kinesin family member 5A)","reagent no.":2,"log2 vehicle/camptothecin viability":0.289,"viability with camptothecin (% of control)":67.7}
{"target":"KIF5A (kinesin family member 5A)","reagent no.":3,"log2 vehicle/camptothecin viability":-0.281,"viability with camptothecin (% of control)":75.6}
{"target":"KIF5A (kinesin family member 5A)","reagent no.":4,"log2 vehicle/camptothecin viability":-0.00727,"viability with camptothecin (% of control)":98.9}
{"target":"EBAG9 (estrogen receptor binding site associated antigen 9)","reagent no.":1,"log2 vehicle/camptothecin viability":-0.534,"viability with camptothecin (% of control)":103}
{"target":"EBAG9 (estrogen receptor binding site associated antigen 9)","reagent no.":2,"log2 vehicle/camptothecin viability":0.136,"viability with camptothecin (% of control)":90.9}
{"target":"EBAG9 (estrogen receptor binding site associated antigen 9)","reagent no.":3,"log2 vehicle/camptothecin viability":-0.278,"viability with camptothecin (% of control)":71.3}
{"target":"EBAG9 (estrogen receptor binding site associated antigen 9)","reagent no.":4,"log2 vehicle/camptothecin viability":0.163,"viability with camptothecin (% of control)":52.8}
{"target":"NRGN (neurogranin)","reagent no.":1,"log2 vehicle/camptothecin viability":0.000636,"viability with camptothecin (% of control)":73.3}
{"target":"NRGN (neurogranin)","reagent no.":2,"log2 vehicle/camptothecin viability":0.429,"viability with camptothecin (% of control)":81.6}
{"target":"NRGN (neurogranin)","reagent no.":3,"log2 vehicle/camptothecin viability":-0.333,"viability with camptothecin (% of control)":64}
{"target":"NRGN (neurogranin)","reagent no.":4,"log2 vehicle/camptothecin viability":0.346,"viability with camptothecin (% of control)":50.3}

Part of the list above, showing only “log2 vehicle/camptothecin viability”.
NRGN (neurogranin) #1	0.000636
NRGN (neurogranin) #2	0.429

The results go on.
{"target":"SERPINI2 (serpin family I member 2)","reagent no.":1,"log2 vehicle/camptothecin viability":-0.516,"viability with camptothecin (% of control)":93.5}
{"target":"SERPINI2 (serpin family I member 2)","reagent no.":2,"log2 vehicle/camptothecin viability":-0.171,"viability with camptothecin (% of control)":65.5}
{"target":"SERPINI2 (serpin family I member 2)","reagent no.":3,"log2 vehicle/camptothecin viability":-0.0922,"viability with camptothecin (% of control)":58.5}
{"target":"SERPINI2 (serpin family I member 2)","reagent no.":4,"log2 vehicle/camptothecin viability":-0.113,"viability with camptothecin (% of control)":103}
{"target":"MUC6 (mucin 6, oligomeric mucus/gel-forming (gene/pseudogene))","reagent no.":1,"log2 vehicle/camptothecin viability":0.474,"viability with camptothecin (% of control)":63.8}
{"target":"MUC6 (mucin 6, oligomeric mucus/gel-forming (gene/pseudogene))","reagent no.":2,"log2 vehicle/camptothecin viability":-0.131,"viability with camptothecin (% of control)":91.8}
{"target":"MUC6 (mucin 6, oligomeric mucus/gel-forming (gene/pseudogene))","reagent no.":3,"log2 vehicle/camptothecin viability":0.42,"viability with camptothecin (% of control)":34.8}
{"target":"MUC6 (mucin 6, oligomeric mucus/gel-forming (gene/pseudogene))","reagent no.":4,"log2 vehicle/camptothecin viability":0.554,"viability with camptothecin (% of control)":17}
{"target":"MUC6 (mucin 6, oligomeric mucus/gel-forming (gene/pseudogene))","reagent no.":5,"log2 vehicle/camptothecin viability":-0.205,"viability with camptothecin (% of control)":74.4}
{"target":"MUC6 (mucin 6, oligomeric mucus/gel-forming (gene/pseudogene))","reagent no.":6,"log2 vehicle/camptothecin viability":-0.522,"viability with camptothecin (% of control)":95.8}
{"target":"MUC6 (mucin 6, oligomeric mucus/gel-forming (gene/pseudogene))","reagent no.":7,"log2 vehicle/camptothecin viability":-0.21,"viability with camptothecin (% of control)":104}
{"target":"MUC6 (mucin 6, oligomeric mucus/gel-forming (gene/pseudogene))","reagent no.":8,"log2 vehicle/camptothecin viability":-0.199,"viability with camptothecin (% of control)":90.4}
{"target":"DRD2 (dopamine receptor D2)","reagent no.":1,"log2 vehicle/camptothecin viability":-0.128,"viability with camptothecin (% of control)":38.6}
{"target":"DRD2 (dopamine receptor D2)","reagent no.":2,"log2 vehicle/camptothecin viability":0.187,"viability with camptothecin (% of control)":31}
{"target":"DRD2 (dopamine receptor D2)","reagent no.":3,"log2 vehicle/camptothecin viability":-0.483,"viability with camptothecin (% of control)":68.2}
{"target":"DRD2 (dopamine receptor D2)","reagent no.":4,"log2 vehicle/camptothecin viability":-0.354,"viability with camptothecin (% of control)":89.9}
{"target":"GML (glycosylphosphatidylinositol anchored molecule like)","reagent no.":1,"log2 vehicle/camptothecin viability":-0.38,"viability with camptothecin (% of control)":56}
{"target":"GML (glycosylphosphatidylinositol anchored molecule like)","reagent no.":2,"log2 vehicle/camptothecin viability":-0.235,"viability with camptothecin (% of control)":70}
{"target":"GML (glycosylphosphatidylinositol anchored molecule like)","reagent no.":3,"log2 vehicle/camptothecin viability":-0.0257,"viability with camptothecin (% of control)":42}
{"target":"GML (glycosylphosphatidylinositol anchored molecule like)","reagent no.":4,"log2 vehicle/camptothecin viability":0.0201,"viability with camptothecin (% of control)":83.8}
{"target":"MDH1 (malate dehydrogenase 1)","reagent no.":1,"log2 vehicle/camptothecin viability":0.0232,"viability with camptothecin (% of control)":65.7}
{"target":"MDH1 (malate dehydrogenase 1)","reagent no.":2,"log2 vehicle/camptothecin viability":-0.0959,"viability with camptothecin (% of control)":105}
{"target":"MDH1 (malate dehydrogenase 1)","reagent no.":3,"log2 vehicle/camptothecin viability":-0.473,"viability with camptothecin (% of control)":60.9}
